Laboratory results as given in patent US20250084173A1 (4B TECHNOLOGIES SUZHOU, published 2025).
No constants are given. Whether binding was seen depends on the method and setting. Some results given as binding are weak or reduced against the parent protein; the word gives no strength.

Protein sequences, listed by entry. Tags and fused reporters are not part of them. Residues count along the entry.
UniProt P04629, residues 194-423: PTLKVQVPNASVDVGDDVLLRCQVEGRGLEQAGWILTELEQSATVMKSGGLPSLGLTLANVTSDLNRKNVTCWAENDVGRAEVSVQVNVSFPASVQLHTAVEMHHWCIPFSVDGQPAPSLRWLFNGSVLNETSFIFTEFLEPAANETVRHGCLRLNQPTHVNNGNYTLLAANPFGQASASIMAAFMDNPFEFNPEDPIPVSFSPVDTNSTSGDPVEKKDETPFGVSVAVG
UniProt P35739, residues 33-418: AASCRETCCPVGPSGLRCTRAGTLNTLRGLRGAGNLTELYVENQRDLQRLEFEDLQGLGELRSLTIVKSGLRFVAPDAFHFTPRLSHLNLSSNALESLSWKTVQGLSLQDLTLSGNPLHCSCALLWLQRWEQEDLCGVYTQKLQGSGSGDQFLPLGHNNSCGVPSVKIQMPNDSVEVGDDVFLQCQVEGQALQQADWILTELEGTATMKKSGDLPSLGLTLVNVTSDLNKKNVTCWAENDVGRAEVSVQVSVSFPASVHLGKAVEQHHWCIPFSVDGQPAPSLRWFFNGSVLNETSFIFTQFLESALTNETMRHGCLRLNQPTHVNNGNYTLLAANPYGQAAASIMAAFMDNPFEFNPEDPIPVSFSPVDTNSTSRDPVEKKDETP

Assays:
[1] = target: D4-TM of human TrkA ECD (human) (UniProt P04629); assay: ELISA on TrkA ECD constructs (FIG. 1e)
[2] = target: recombinant rat TrkA ECD protein (rat) (UniProt P35739); assay: ELISA on recombinant TrkA ECD proteins (FIG. 1b)

- binding [1]: binds
- binding [2]: binds
B1: 27A6 (antibody, mouse IgG1, V domains shown)
VH: QVQLQQSGAELMEPGASVKISCKATGYTFSRYWIEWVQQRPGHGLEWIGEILPGSGTTNYNENFRGKATFTADTSSNTVYMQLISLTSEDSAVYYCARSYYGDFDAYWGQGTLVTVSA
VL: QAVVTQESALTTSPGETVTLTCRSSIGAVTTSNHANWVQEKPDHLFTGLIGGTNNRAPGVPARFSGSLIGDKAVLTITGAQTEDEAIYFCALWYSNHWVFGGGTKLTVLG
notes: also called TrkA antibody; TrkA antibody of the present application
